Data taken from doi:10.1101/2024.04.24.590918.
Numbering of substitutions follows the chain as printed. Read-outs that look alike come from different tables or passages of the source. These are yes or no findings as the source states them, for the method shown. Binding seen in cells or lysates may run through a third protein. A yes stands for co-enrichment or nearness to the bait. Other partners may have been found. For part of these data: No binding means not detected with the bait. Tags and fused reporters may be left off the sequences shown. One block for each molecule: values may come before it.

Columns and labels:
Test in all cases: affinity purification with mass spectrometry
[1] = target: T1, Cys293S mutated GCN5-GFP from pGCN5::GCN5(GCN5C293S)-GFP(gcn5) plants (Arabidopsis thaliana) (UniProt Q9AR19)
T1 sequence: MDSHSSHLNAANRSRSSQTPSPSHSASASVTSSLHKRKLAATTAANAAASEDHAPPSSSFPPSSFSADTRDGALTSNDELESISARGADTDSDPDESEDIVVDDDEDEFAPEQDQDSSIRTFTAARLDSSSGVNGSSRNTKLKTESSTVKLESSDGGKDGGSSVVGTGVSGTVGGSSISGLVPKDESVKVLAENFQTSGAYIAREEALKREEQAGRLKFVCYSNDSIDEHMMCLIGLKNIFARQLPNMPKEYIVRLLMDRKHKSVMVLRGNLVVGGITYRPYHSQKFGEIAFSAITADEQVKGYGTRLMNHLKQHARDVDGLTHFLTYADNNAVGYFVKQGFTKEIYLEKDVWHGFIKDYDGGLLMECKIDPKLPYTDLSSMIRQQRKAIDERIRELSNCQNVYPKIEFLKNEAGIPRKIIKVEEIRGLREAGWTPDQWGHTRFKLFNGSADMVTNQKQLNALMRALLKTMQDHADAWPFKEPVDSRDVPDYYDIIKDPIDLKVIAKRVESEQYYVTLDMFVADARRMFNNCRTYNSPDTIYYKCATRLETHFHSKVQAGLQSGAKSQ

[2] = target: T1, Cys293S mutated GCN5-GFP from pGCN5::GCN5(GCN5C293S)-GFP(gcn5) plants (Arabidopsis thaliana); remark: listed apart in the source
[3] = target: T2, wild type GCN5-GFP from pGCN5::GCN5(GCN5wt)-GFP(gcn5) plants (Arabidopsis thaliana) (UniProt Q9AR19)
T2 sequence: T1 sequence with S293C

binding [2]: binds
binding [3]: binds
B1: ADA2A (protein, UniProt Q9SFD5 1-548)
chain: MGRSKLASRPAEEDLNPGKSKRKKISLGPENAAASISTGIEAGNERKPGLYCCNYCDKDLSGLVRFKCAVCMDFDLCVECFSVGVELNRHKNSHPYRVMDNLSFSLVTSDWNADEEILLLEAIATYGFGNWKEVADHVGSKTTTECIKHFNSAYMQSPCFPLPDLSHTIGKSKDELLAMSKDSAVKTEIPAFVRLSPKEELPVSAEIKHEASGKVNEIDPPLSALAGVKKKGNVPQAKDIIKLEAAKQQSDRSVGEKKLRLPGEKVPLVTELYGYNLKREEFEIEHDNDAEQLLADMEFKDSDTDAEREQKLQVLRIYSKRLDERKRRKEFVLERNLLYPDQYEMSLSAEERKIYKSCKVFARFQSKEEHKELIKKVIEEHQILRRIEDLQEARTAGCRTTSDANRFIEEKRKKEAEESMLLRLNHGAPGSIAGKTLKSPRGLPRNLHPFGSDSLPKVTPPRIYSGLDTWDVDGLLGADLLSETEKKMCNETRILPVHYLKMLDILTREIKKGQIKKKSDAYSFFKVEPSKVDRVYDMLVHKGIGDST

binding [2]: binds
binding [3]: binds
B2: ADA2B (protein, UniProt Q9ATB4 1-487)
chain: MGRSRGNFQNFEDPTQRTRKKKNAANVENFESTSLVPGAEGGGKYNCDYCQKDITGKIRIKCAVCPDFDLCIECMSVGAEITPHKCDHPYRVMGNLTFPLICPDWSADDEMLLLEGLEIYGLGNWAEVAEHVGTKSKEQCLEHYRNIYLNSPFFPLPDMSHVAGKNRKELQAMAKGRIDDKKAEQNMKEEYPFSPPKVKVEDTQKESFVDRSFGGKKPVSTSVNNSLVELSNYNQKREEFDPEYDNDAEQLLAEMEFKENDTPEEHELKLRVLRIYSKRLDERKRRKEFIIERNLLYPNPFEKDLSQEEKVQCRRLDVFMRFHSKEEHDELLRNVVSEYRMVKRLKDLKEAQVAGCRSTAEAERYLGRKRKRENEEGMNRGKESGQFGQIAGEMGSRPPVQASSSYVNDLDLIGFTESQLLSESEKRLCSEVKLVPPVYLQMQQVMSHEIFKGNVTKKSDAYSLFKIDPTKVDRVYDMLVKKGIAQL

Continued, molecule first:

Molecule: EAF6
binding [1]: no binding

Molecule: SDRL
binding [1]: no binding
